This is one part of the list.

The chains behind the UniProt entries cited, without tags or fusion partners.
UniProt Q0JBA9, entry or part of it: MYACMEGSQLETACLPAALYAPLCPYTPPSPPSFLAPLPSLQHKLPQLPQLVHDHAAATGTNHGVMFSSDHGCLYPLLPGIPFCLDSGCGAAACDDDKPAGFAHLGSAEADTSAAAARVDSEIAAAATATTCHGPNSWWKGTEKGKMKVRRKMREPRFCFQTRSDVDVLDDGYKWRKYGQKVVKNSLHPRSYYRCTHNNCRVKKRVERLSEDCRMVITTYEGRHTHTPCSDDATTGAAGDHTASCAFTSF

For this assay, the target named is OsWRKY34 (Oryza sativa, UniProt Q0JBA9 1-250). Put plainly: protein-binding microarray (RPBM); PBS, 2% BSA, 51.3 ng/ul salmon testes DNA, 50 uM zinc acetate, 200 nM TF, 25 C, 1 h; high values mean tight binding. The note with it: protein: recombinant; tags: N-terminal polyhistidine and DsRed monomer fusion (pET32a); label: CyDye5-dUTP incorporated in the synthesized complementary strand; 3' TTTTT single-stranded linker to array surface; dsDNA, one strand shown. The method, boiled down: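 The binding signal is fluorescence intensity per feature, in arbitrary units, read on an Axon 4000B scanner. Polyhistidine- and DsRed-tagged transcription factors (N-terminal fusions) from E. coli BL21-CodonPlus were purified on Ni–NTA and applied at 200 nM for 1 h at 25 °C to a double-stranded, BSA-blocked custom Agilent array in buffer with 50 µM zinc acetate.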
On to “ACTAACTTAAATATAACCATCACTTGCTAATACTTTATCCCGGAGTCACCTAGTGCAG”, for which the binding signal is 9100 fluorescence intensity (a.u.).

On to “CCTATAAATACCTTGTTGCCATCCGTTTCCAGTTCATCATCGGAGTCACCTAGTGCAG”, for which the binding signal was 10400 fluorescence intensity (a.u.). For “TCAGTATTTCCAAATATGAGTTTTCTTGATGTTTCTAGCACGGAGTCACCTAGTGCAG” the value was 8040 fluorescence intensity (a.u.); for “CTGTAGTCCGTTGCTTTTCTCTTTTCCTTTATCTCTTTAACGGAGTCACCTAGTGCAG”, 9590 fluorescence intensity (a.u.); for “AATACAGGTGAGTTGTTGCTTCCTTACCATCATTTTCTAACGGAGTCACCTAGTGCAG”, 11900 fluorescence intensity (a.u.). Take “GCCATTCTTGGTTGGATTAGGGTTAGGGTTCGTCGGGATGCGGAGTCACCTAGTGCAG”: the binding signal was 9040 fluorescence intensity (a.u.). For “TTTTTTGTTTTTTCTTTGAATTCTTTCCTTACGATTTTTGCGGAGTCACCTAGTGCAG” the value was 13400 fluorescence intensity (a.u.). The result for “AATGTACGGCTATACTCTACTCACTTCATCGGTAAATACACGGAGTCACCTAGTGCAG” reads 10700 fluorescence intensity (a.u.). For “ATGTTTTATTTCCATCTCTCCAGATGTTGCTAAATTAGTCCGGAGTCACCTAGTGCAG” the value was 9590 fluorescence intensity (a.u.); for “AGGGAGGGAGGGCCATCGATCATGAGGAGGGTGTTATACACGGAGTCACCTAGTGCAG”, 9930 fluorescence intensity (a.u.).

For “TCCCGTGCGCCGCCGCCTCGTCGTTCCATCTAAGTCGCGACGGAGTCACCTAGTGCAG”, the binding signal is 9280 fluorescence intensity (a.u.). The result for “GTTTCTTGCTTTCTTGGCCATGGTTTATGAATGGATTCTGCGGAGTCACCTAGTGCAG” reads 8500 fluorescence intensity (a.u.). Turning to “GCCCCACTGTCGGCCACCCCACTCCCCGCCGTCCTCCTCCCGGAGTCACCTAGTGCAG”, the binding signal was 8820 fluorescence intensity (a.u.). The result for “CTTCGCTTTCGTCACGTTCTTGATTTGGGCGGGCGCGGAGCGGAGTCACCTAGTGCAG” reads 8980 fluorescence intensity (a.u.); that for “CGAGGCCATTCTATCGCGCAAATCTTTTACACCTCGCTGTCGGAGTCACCTAGTGCAG”, 10400 fluorescence intensity (a.u.).

Regarding “GCAACTTTTTATTTTTTATATTTGCAAAAGTTTTTTAAATCGGAGTCACCTAGTGCAG”, the binding signal is 8390 fluorescence intensity (a.u.).

Take “TTCTGCCTGTCTTTAGGTTCAATGATGATCCCTTGTCAAACGGAGTCACCTAGTGCAG”: the binding signal is 13700 fluorescence intensity (a.u.).

“ATACAATATTTTGGGGTGGTTACAATTTACACAGTATTCTCGGAGTCACCTAGTGCAG”: the binding signal was 11500 fluorescence intensity (a.u.). Turning to “TGATTTTCTTTTTATTCCATGTTCTACTTTTTAATTTTTTCGGAGTCACCTAGTGCAG”, the binding signal is 10000 fluorescence intensity (a.u.). For “GCCACCATTAATTGCGAGCTGCTTCTTCTTCCCGTTCTTGCGGAGTCACCTAGTGCAG” the value was 10100 fluorescence intensity (a.u.); for “CAACACCCAAATCCCATCGTTCTTGTATTCTCCACTAGTCCGGAGTCACCTAGTGCAG”, 9410 fluorescence intensity (a.u.); for “AATCAGGCAGGCACCTTTTTCGCGTTGCACCACCGCGCCACGGAGTCACCTAGTGCAG”, 10500 fluorescence intensity (a.u.). For “CATCCACCGCCACCGCCACCGCCACCGCCACCTCACCACCCGGAGTCACCTAGTGCAG” the value was 14000 fluorescence intensity (a.u.); for “TTTCTCTCACATCTTTTATTTTATTATTAAAATATGTTTACGGAGTCACCTAGTGCAG”, 8550 fluorescence intensity (a.u.); for “CATCCGCGGCAGCAGCCGCCCGCCGACCGCGCGCTTCTCCCGGAGTCACCTAGTGCAG”, 8690 fluorescence intensity (a.u.).

On to “CAATCAAACGGTCATTTTTATATTTTTCCTATGTTTTACACGGAGTCACCTAGTGCAG”, for which the binding signal is 12300 fluorescence intensity (a.u.).

Consider “ATGGGCTTCTTTTTGTGGTGTACATGATTTAGACTTTTTGCGGAGTCACCTAGTGCAG”, for which the binding signal is 10700 fluorescence intensity (a.u.). The result for “CTCCGTTGTGCTCTGTCTCTCTACCGCCACCATCCACTGCCGGAGTCACCTAGTGCAG” reads 12000 fluorescence intensity (a.u.); that for “GCTTTGTGCACGTATATATATTTCACCGTCTCGTTCAATCCGGAGTCACCTAGTGCAG”, 9640 fluorescence intensity (a.u.).

As to “AAACTTCTGATCTTGGTTGTATACTATATTTTCCCTTTCACGGAGTCACCTAGTGCAG”, the binding signal is 8290 fluorescence intensity (a.u.). Take “CCCAATTTTTTAATAGTGTTCCGTTTCAGAAATCACTTTCCGGAGTCACCTAGTGCAG”: the binding signal was 8400 fluorescence intensity (a.u.). Consider “TCTCCTCCATCATCGCAGCCAACTCCAACATCCTGAGCTCCGGAGTCACCTAGTGCAG”, for which the binding signal is 9510 fluorescence intensity (a.u.). For “CCGCCTAGATGGCATTCCCATCAAGCACTTCAGAGTCTTCCGGAGTCACCTAGTGCAG” the value was 8270 fluorescence intensity (a.u.); for “ACATAAACTTTGCACTTTTCTTACTTTCCACCCACACTAACGGAGTCACCTAGTGCAG”, 10100 fluorescence intensity (a.u.). The result for “CCACCTTTATCTATTTGTTTTTTTGTTCAGTCGTTGGAATCGGAGTCACCTAGTGCAG” reads 10400 fluorescence intensity (a.u.). On to “GATTGGGGTGTGACACGGGTACGACGTGAGGGAGGTGGTTCGGAGTCACCTAGTGCAG”, for which the binding signal was 10400 fluorescence intensity (a.u.). The result for “GCGGCTGCGGGCCTGCGGCTTCCTTCGCTAGGTTGACTACCGGAGTCACCTAGTGCAG” reads 8300 fluorescence intensity (a.u.). In the case of “GACGCGGCGCCGAACGGGTCGCTGGGCGGGTACGACGTGACGGAGTCACCTAGTGCAG”, the binding signal is 9200 fluorescence intensity (a.u.). The result for “GAACCTCTCGTAGCCTCACATCTCGTCATTCCTCCCTCCTCGGAGTCACCTAGTGCAG” reads 8270 fluorescence intensity (a.u.).

Take “CTGGTGCTTGTATCTCCTAGTTTGTGGTATTGGGATTTTTCGGAGTCACCTAGTGCAG”: the binding signal is 14700 fluorescence intensity (a.u.). For “AACTCCCATCTGTTTTCGTTTGAGCTGATTAGGACTTTGTCGGAGTCACCTAGTGCAG” the value was 8640 fluorescence intensity (a.u.); for “GGTTTGTCATTTTTATTTATTTTTTGCATAATTCGTTTTACGGAGTCACCTAGTGCAG”, 11800 fluorescence intensity (a.u.).

In the case of “ATCGTGAACTCTATTTTCGTAGGCACGGATTGATGCATTACGGAGTCACCTAGTGCAG”, the binding signal is 8220 fluorescence intensity (a.u.). For “CCACTCTCCGGCGCACCTATTTTCCATTTATATATATATGCGGAGTCACCTAGTGCAG” the value was 9670 fluorescence intensity (a.u.); for “CCCTCTCACCACCACCACCACCACCACCCGAGCAATAATTCGGAGTCACCTAGTGCAG”, 8650 fluorescence intensity (a.u.). On to “CCTTGCAAACATGTCCTTCGTTTCCGTATCATGCGATTGGCGGAGTCACCTAGTGCAG”, for which the binding signal is 9020 fluorescence intensity (a.u.). As for “AGTTGATTATGAGTCTTGTGACTTGTGGGGTTGTTTTGGTCGGAGTCACCTAGTGCAG”, the binding signal was 12700 fluorescence intensity (a.u.). The result for “TTCTTAGTTGTATTTCTATATGGACTGTAGTCTCCTCTTCCGGAGTCACCTAGTGCAG” reads 9170 fluorescence intensity (a.u.); that for “ATATATAAGCAACCGGTTATATATTTGTATTGTGTTTTTTCGGAGTCACCTAGTGCAG”, 8960 fluorescence intensity (a.u.); that for “GTTGGATTGTTCTTCTGTCTCTGCCAAATCGTTGATGTCACGGAGTCACCTAGTGCAG”, 11000 fluorescence intensity (a.u.). The result for “TTCCCTTACGTAGTCTCTCGGGAGTATGATCTTGTAATTTCGGAGTCACCTAGTGCAG” reads 8840 fluorescence intensity (a.u.); that for “AGAACTCCCTCCGTCCCGTTTTTAGCGCACTCATCTTTTTCGGAGTCACCTAGTGCAG”, 12500 fluorescence intensity (a.u.). For “TTACCTCGCGTACCCTCGCACCCGTCTCCCGCAGACAGATCGGAGTCACCTAGTGCAG” the value was 8480 fluorescence intensity (a.u.). As to “GACCACACCAAAACTGCAATCACCTCACTCATCCAGTCATCGGAGTCACCTAGTGCAG”, the binding signal was 9150 fluorescence intensity (a.u.).

For the origin of these results see article PMC7819943, “Rice protein-binding microarrays: a tool to detect cis-acting elements near promoter regions in rice”.
